The text below walks through data of patent US20200048332A1 (BIOVERATIV USA, published 2020).

Assay [1] deals with T1, activated C1s (human, UniProt P09871 16-688).
T1 sequence: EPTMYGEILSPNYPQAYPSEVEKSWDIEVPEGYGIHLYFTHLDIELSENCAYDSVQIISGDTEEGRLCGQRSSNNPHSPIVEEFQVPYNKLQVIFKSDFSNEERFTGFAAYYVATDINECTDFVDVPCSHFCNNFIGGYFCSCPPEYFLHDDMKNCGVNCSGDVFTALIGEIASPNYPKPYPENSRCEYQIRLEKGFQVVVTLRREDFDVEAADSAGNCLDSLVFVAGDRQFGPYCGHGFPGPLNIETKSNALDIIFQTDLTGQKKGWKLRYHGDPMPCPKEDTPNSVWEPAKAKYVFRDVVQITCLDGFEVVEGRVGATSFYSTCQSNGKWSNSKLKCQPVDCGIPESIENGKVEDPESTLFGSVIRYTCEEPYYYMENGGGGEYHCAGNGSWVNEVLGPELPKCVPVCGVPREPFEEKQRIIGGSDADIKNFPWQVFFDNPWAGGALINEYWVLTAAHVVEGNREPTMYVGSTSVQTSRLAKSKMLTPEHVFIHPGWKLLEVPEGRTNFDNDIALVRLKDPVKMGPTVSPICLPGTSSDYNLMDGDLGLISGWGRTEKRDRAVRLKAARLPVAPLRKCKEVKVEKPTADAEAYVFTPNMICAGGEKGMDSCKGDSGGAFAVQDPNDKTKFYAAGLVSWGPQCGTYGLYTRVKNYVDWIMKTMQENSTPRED
The assay can be described thus: direct binding of antibody to activated C1s (column 'Direct Binding Ab to aC1s', EC50 (M)); assay format not named.

The target in assay [2] is T1, activated C1s. The assay can be described thus: direct binding to activated C1s and competition binding with 50 pM Biot-005.
The target of assay [3] is T1, activated C1s. As to the kind of experiment: ELISA, plate pre-coated with activated C1s, detected with HRP-conjugated anti-human IgG (capture step of the PK assay, with a standard curve of VH3/VK2-Fc-sub4). Background: An ELISA detects its analyte on a solid surface through an enzyme-linked reagent.

No constants are given. Whether binding was seen depends on the method and setting. Some binding calls cover weakened binding; strength is not graded here. For part of these data: Where a sequence is shown, tags or fusion partners need not be part of it.

B1: murine anti-activated C1s antibody (antibody, V domains shown)
VH: EVQLQQSGAELVRPGASVKLSCTASGFNIKDDYIHWVKQRPEQGLEWIGRIDPADGHTKYAPKFQVKATITADTSSNTAYLQLSSLTSEDTAVYYCARYGYGREVFDYWGQGTTLTVSS
VL: DIVLTQSPASLAVSLGQRATISCKASQSVDYDGDSYMNWYQQKTGQPPKILIYDASNLESGIPARFSGSGSGTDFTLNIHPVEEEDAAIYYCQQSNEDPWTFGGGTKLEIK
For the molecule B1, in assay [1], the binding entry was “binds”.

B2: humanized VH2/Vk2 (antibody, V domains shown)
VH: EVQLVQSGAEVKKPGASVKLSCTASGFNIKDDYIHWVKQAPGQGLEWIGRIDPADGHTKYAPKFQVKATITADTSTNTAYLELSSLRSEDTAVYYCARYGYGREVFDYWGQGTTVTVSS
VL: DIVLTQSPDSLAVSLGERATISCKASQSVDYDGDSYMNWYQQKPGQPPKILIYDASNLESGIPARFSGSGSGTDFTLTISSLEPEDFAIYYCQQSNEDPWTFGGGTKVEIK
With B2, the binding result in assay [2] was “binds”.

B3: VH3/VK2-Fc-sub4 (antibody, human IgG4 S228P, kappa, V domains shown)
VH: QVQLVQSGAEVKKPGASVKLSCTASGFNIKDDYIHWVKQAPGQGLEWIGRIDPADGHTKYAPKFQVKVTITADTSTSTAYLELSSLRSEDTAVYYCARYGYGREVFDYWGQGTTVTVSS
VL: DIVLTQSPDSLAVSLGERATISCKASQSVDYDGDSYMNWYQQKPGQPPKILIYDASNLESGIPARFSGSGSGTDFTLTISSLEPEDFAIYYCQQSNEDPWTFGGGTKVEIKR
notes: Humanized IgG4; also called TNT020; humanized anti-aC1s variant VH3/VK2-Fc-sub4
For the molecule B3, in assay [3], the binding entry was “binds”.
